The values that follow come from patent publication US20240294550A1, “8-OXA-3-AZABICYCLO[3.2.1]OCTANE COMPOUNDS OR SALT THEREOF, AND PREPARATION METHOD AND USE THEREOF” (LITTDD MEDICINES LTD, priority 2021, published 2024).

Data set [1] can be described thus: physchem. The conditions noted are these: pH 6.5, fassif, thermodynamic from solid.
A short description of data set [2]: Metabolic stability in mouse liver microsomes. The class given is in vitro ADME, CD-1 mice. As for the experimental part:
Screen. […] After incubation for appropriate time (such as 5, 10, 20, 30 and 60 minutes), samples were collected, and an appropriate termination solution (glacial acetonitrile containing 200 ng/mL tolbutamide and 200 ng/mL labetalol (i.e. acetonitrile at 4° C.)) was added to stop the reaction. Sample treatment (n=1): each appropriate sample was added, vortexed and centrifuged at high speed. The supernatants were collected, and detected the substrate by HPLC-MS/MS. The peak area at the 0 min was set as 100%. The peak areas at other time points were converted to percentages of the remaining amount. The natural logarithms of the percentage of remaining amount at each time point was plotted against the incubation time, and the slope (−k) was calculated. Then, Clint (μL/min/mg) and half-life (T½, min) of the compounds were calculated following the equation: Inherent clearance rate (Clint)=(k*Volume of incubation solution)/Mass of liver microsomes.
In general terms: Liver microsomes are a subcellular fraction often used to study metabolism.

Data set [3] is described as follows: Pharmacokinetic (PK) assay in mice. The class given is in vivo. As to conditions: CD-1 mice; for AUC(0-t): read-out: AUC0-24 h. Here is the method: The PK of each compound was determined as follows: 6 CD-1 mice (obtained from Shanghai Lingchang Biotechnology Co., Ltd.) were divided into two groups, 3 mice in each group. […] Blood samples were collected from saphenous vein of lower leg in each group at 0, 0.083, 0.25, 0.5, 1, 2, 4, 6, 8 and 24 h after administration. Approximately 40 μL of the blood samples were collected in anticoagulant tubes containing EDTA-K2. Immediately after collection, the tubes were inverted at least 5 times to ensure adequate mixing, and then placed on ice. The blood samples collected at each time point were centrifuged at 4° C., 8000 rpm for 5 minutes to obtain plasma. Another 1.5 mL centrifuge tube was marked with the compound name, animal number, and time point, and the plasma was transferred to this tube. The plasma was stored at −80° C. until analysis.
Compound concentrations in plasma were determined by UPLC-MS/MS method, and the pharmacokinetic parameters were calculated by Phoenix WinNolin 6.4 pharmacokinetic software on the obtained data.

Values after ≈ are worked out from the molar mass of the structure shown. Read-outs that look alike come from different tables or passages of the source.

As to `C[C@@H]1COCCN1c1cc(-c2ccnn2C)c2ccnc(-c3ccn[nH]3)c2n1` [BAY-1895344, reference compound], the concentration in solution in data set [1] (solubility) was 33.4 µg/mL (≈ 89 µM). In addition, the half-life (as a rule, how long it takes for the measured level to halve) at 1 μM in data set [2] (CD-1, 1 μM compound) was 0.418 h. Further, the microsomal CLint at 1 μM in data set [2] (CD-1, read-out: CLint(mic)) stood at 55.1 µL/min/mg. In addition, the “Remain % (T = 60 min)” value in data set [2] (T = 60 min) is 17.0%. For the same compound, the CL_obs in data set [3] (IV dose 1 mg/kg) is reported as 36.3 mL/min/kg. Moreover, the half-life is 2.79 h in data set [3] (mouse, plasma, IV dose 1 mg/kg) and 2.21 h in data set [3] (mouse, plasma, Po dose 5 mg/kg). This compound came in with a C0 in data set [3] (mouse, IV dose 1 mg/kg, plasma) of 764 ng/mL. Further, the AUC(0-t) was 445 ng·h/mL in data set [3] (mouse, IV dose 1 mg/kg, plasma) and 704 ng·h/mL in data set [3] (mouse, Po dose 5 mg/kg, plasma). Moreover, the peak level in data set [3] (mouse, Po dose 5 mg/kg, plasma) (Cmax) was 526 ng/mL.
